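A panel of P. falciparum strains inside erythrocytes is exposed to compounds for three days, then a DNA-binding dye reports the amount of parasite DNA.
Each compound was titrated across a series from about 0.000037 to 29 µM.
The number is the fitted AC50, the concentration giving a half-maximal change in signal; a lower value means higher potency, whether the curve shows a decrease or an increase.
Calls follow the curve class and fit quality: every row here is inconclusive, covering signal-raising curves and weak, poorly fitted, partial or highest-dose-only inhibition curves.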

Values are in µM.
Every entry below has the call inconclusive.
These entries are mostly ones the record files as inconclusive; other results of the assay are not listed here.
Potencies fitted to partial, single-point or poorly fitting curves are rough.
The first word of each remark tells which way the curve ran; it can be opposite to the aim of the assay.

structure | setting | fitted potency (µM) | curve as filed
C[C@]12C=CC(=O)N[C@@H]1CC[C@@H]1C2CC[C@]2(C)C(C(=O)Nc3cc(C(F)(F)F)ccc3C(F)(F)F)CC[C@@H]12 (stereo partly specified) | FAB9 | 3.981 | inhibitor, single point
COC(=O)[C@H]1[C@H]2CC3c4[nH]c5ccccc5c4CCN3C[C@@H]2CC[C@@H]1O (stereo partly specified) | P94_40 | 11.22 | inhibitor, single point
COC(=O)[C@H]1[C@H]2CC3c4[nH]c5ccccc5c4CCN3C[C@@H]2CC[C@@H]1O (stereo partly specified) | 3D7 | 8.912 | inhibitor, single point
O=C1CN=C(c2ccccc2)c2cc([N+](=O)[O-])ccc2N1 | DIV14 | 19.01 | inhibitor, single point
COc1cc([C@H]2Oc3cc([C@H]4Oc5cc(O)cc(O)c5C(=O)[C@@H]4O)ccc3O[C@@H]2CO)ccc1O | DIV17 | 12 | inhibitor, single point
COc1cc([C@H]2Oc3cc([C@H]4Oc5cc(O)cc(O)c5C(=O)[C@@H]4O)ccc3O[C@@H]2CO)ccc1O | PC15 | 11.22 | inhibitor, single point
COc1cc([C@H]2Oc3cc([C@H]4Oc5cc(O)cc(O)c5C(=O)[C@@H]4O)ccc3O[C@@H]2CO)ccc1O | SC27B | 11.22 | inhibitor, single point
COc1cc([C@H]2Oc3cc([C@H]4Oc5cc(O)cc(O)c5C(=O)[C@@H]4O)ccc3O[C@@H]2CO)ccc1O | TAB165 | 11.22 | inhibitor, single point
CC(C)(O)C(Cl)(Cl)Cl | CP217 | 14.13 | inhibitor, single point
CC(C)(O)C(Cl)(Cl)Cl | CP211 | 16.94 | inhibitor, single point
CC(C)(O)C(Cl)(Cl)Cl | CP252 | 11.22 | inhibitor, single point
CC(C)(O)C(Cl)(Cl)Cl | CP185 | 11.22 | inhibitor, single point
CC(C)(O)C(Cl)(Cl)Cl | CP192 | 16.94 | inhibitor, single point
CC(C)(O)C(Cl)(Cl)Cl | CP315 | 19.01 | inhibitor, single point
CC(C)(O)C(Cl)(Cl)Cl | CP201 | 19.01 | inhibitor, single point
CC(C)(O)C(Cl)(Cl)Cl | CP297 | 19.01 | inhibitor, single point
CC(C)(O)C(Cl)(Cl)Cl | C2A | 10 | inhibitor, single point
Cc1c(C)c2c(c(C)c1O)CCC(C)(CCCC(C)CCCC(C)CCCC(C)C)O2 (stereo unspecified) | ICS | 8.912 | inhibitor, single point
Cc1c(C)c2c(c(C)c1O)CCC(C)(CCCC(C)CCCC(C)CCCC(C)C)O2 (stereo unspecified) | CP297 | 0.4775 | inhibitor, full curve, poor fit
Cc1c(C)c2c(c(C)c1O)CCC(C)(CCCC(C)CCCC(C)CCCC(C)C)O2 (stereo unspecified) | Dd2 | 3.981 | inhibitor, partial curve, poor fit
Cc1c(C)c2c(c(C)c1O)CCC(C)(CCCC(C)CCCC(C)CCCC(C)C)O2 (stereo unspecified) | 7G8 | 7.08 | inhibitor, partial curve
CCCCCN(C)CCC(O)(P(=O)(O)O)P(=O)(O)O | TAB113 | 3.981 | inhibitor, single point
C[C@@]12CC[C@H]3[C@@H](CCC4=CC(=O)CC[C@]43C)[C@H]1CC[C@H]2C(=O)CO | TAB113 | 1.122 | inhibitor, single point
C[C@@]12CC[C@H]3[C@@H](CCC4=CC(=O)CC[C@]43C)[C@H]1CC[C@H]2C(=O)CO | CP203 | 2.558 | inhibitor, partial curve, poor fit
C[C@@]12CC[C@H]3[C@@H](CCC4=CC(=O)CC[C@]43C)[C@H]1CC[C@H]2C(=O)CO | DIV14 | 3.22 | inhibitor, partial curve
C[C@@]12CC[C@H]3[C@@H](CCC4=CC(=O)CC[C@]43C)[C@H]1CC[C@H]2C(=O)CO | AS120 | 10 | inhibitor, single point
C[C@@]12CC[C@H]3[C@@H](CCC4=CC(=O)CC[C@]43C)[C@H]1CC[C@H]2C(=O)CO | P94_40 | 4.467 | inhibitor, single point
C[C@@]12CC[C@H]3[C@@H](CCC4=CC(=O)CC[C@]43C)[C@H]1CC[C@H]2C(=O)CO | ECU | 10 | inhibitor, single point
C[C@@]12CC[C@H]3[C@@H](CCC4=CC(=O)CC[C@]43C)[C@H]1CC[C@H]2C(=O)CO | CP247 | 3.548 | inhibitor, single point
C[C@@]12CC[C@H]3[C@@H](CCC4=CC(=O)CC[C@]43C)[C@H]1CC[C@H]2C(=O)CO | PAD | 3.981 | inhibitor, single point
C[C@@]12CC[C@H]3[C@@H](CCC4=CC(=O)CC[C@]43C)[C@H]1CC[C@H]2C(=O)CO | TAB165 | 7.943 | inhibitor, single point
O=C/C=C/c1ccccc1 | CP335 | 2.133 | inhibitor, single point
Oc1c(Br)cc(Br)c2cccnc12 | AS120 | 17.78 | inhibitor, single point
Oc1c(Br)cc(Br)c2cccnc12 | TAB165 | 15.85 | inhibitor, single point
Oc1c(Br)cc(Br)c2cccnc12 | TAB113 | 17.78 | inhibitor, single point
Oc1c(Br)cc(Br)c2cccnc12 | ICS | 17.78 | inhibitor, single point
Oc1c(Br)cc(Br)c2cccnc12 | 7G8 | 10 | inhibitor, single point
Oc1c(Br)cc(Br)c2cccnc12 | CP262 | 21.33 | activator, partial curve, poor fit
O=C1CCc2ccc(OCCCCN3CCN(c4cccc(Cl)c4Cl)CC3)cc2N1 | PC15 | 17.78 | inhibitor, single point
O=C1CCc2ccc(OCCCCN3CCN(c4cccc(Cl)c4Cl)CC3)cc2N1 | C2A | 11.22 | inhibitor, single point
O=C1CCc2ccc(OCCCCN3CCN(c4cccc(Cl)c4Cl)CC3)cc2N1 | CP217 | 11.22 | inhibitor, single point
O=C1CCc2ccc(OCCCCN3CCN(c4cccc(Cl)c4Cl)CC3)cc2N1 | CP252 | 17.78 | inhibitor, single point
O=C1CCc2ccc(OCCCCN3CCN(c4cccc(Cl)c4Cl)CC3)cc2N1 | SC27B | 17.78 | inhibitor, single point
O=C1CCc2ccc(OCCCCN3CCN(c4cccc(Cl)c4Cl)CC3)cc2N1 | ECU | 12.59 | inhibitor, single point
O=C1CCc2ccc(OCCCCN3CCN(c4cccc(Cl)c4Cl)CC3)cc2N1 | Dd2 | 17.78 | inhibitor, single point
O=C1CCc2ccc(OCCCCN3CCN(c4cccc(Cl)c4Cl)CC3)cc2N1 | CP250 | 15.85 | inhibitor, single point
O=C1CCc2ccc(OCCCCN3CCN(c4cccc(Cl)c4Cl)CC3)cc2N1 | PAD | 11.22 | inhibitor, single point

Some entries from above, unchanged:

* C[C@@]12CC[C@H]3[C@@H](CCC4=CC(=O)CC[C@]43C)[C@H]1CC[C@H]2C(=O)CO [CP247] : fitted potency 3.548 µM (inhibitor, single point)
* C[C@@]12CC[C@H]3[C@@H](CCC4=CC(=O)CC[C@]43C)[C@H]1CC[C@H]2C(=O)CO [P94_40] : fitted potency 4.467 µM (inhibitor, single point)

From PubChem BioAssay record AID504749 (NCATS, 2011).